Laboratory results: PubChem BioAssay AID686937 (Drosophila RNAi Screening Center, 2013)
Test: 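Genes in the fly needed for secretion of protein constitutively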 (primary screen). Cells: Drosophila S2 cells expressing secreted horseradish peroxidase. Reagent: long dsRNA against Drosophila genes. Time to read-out: about 5.5 days (5 days dsRNA, then 12 h reporter induction). Challenge: reporter expression induced after 5 days of dsRNA, read 12 h later; inducer not stated. Read-out: 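After 5 days of dsRNA and 12 h of reporter induction, medium peroxidase read by chemiluminescence and scored as per-plate z-score; higher values mean more reporter released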. Direction: z-score: higher = more reporter secreted into medium.
The screen tested about 23,000 reagents; below is an unselected part of those with a known target gene and a result. 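Reduced-secretion tags in replicate 1 do not always agree with the z-scores; no criterion for assigning the tags was given.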 A plus sign joins genes that one reagent is predicted to hit. Not stated in the record: the amount of reagent.

| predicted target | PubChem SID | z-score, replicate 1 | z-score, replicate 2 | z-score, replicate 3 | z-score, replicate 4 | phenotype, replicate 1 |
| --- | --- | --- | --- | --- | --- | --- |
| CG13023 | SID104189246 | 0.26 | -0.1 | – | – | – |
| CG13023 | SID104189695 | 0.27 | 0.16 | – | – | – |
| HDAC4 (Histone deacetylase 4) | SID104199572 | 0.19 | 0.23 | – | – | – |
| CG17801 | SID104195065 | 0.45 | -0.24 | – | – | – |
| CG33493 | SID104190434 | 0.17 | 0.22 | – | – | – |
| CG34126 | SID104182518 | 0.16 | 0.42 | – | – | – |
| CG34126 | SID104201652 | 0.14 | 0.06 | – | – | – |
| CG11836 | SID104194188 | 0.29 | 0.37 | – | – | – |
| Elba2 (Early boundary activity 2) | SID104180523 | 0.37 | 0.51 | – | – | – |
| CG30288 | SID104201596 | -0.18 | 0 | – | – | – |
| Kr (Kruppel) | SID104184414 | 0.25 | 0.28 | – | – | – |
| tst + CG10375 | SID104194029 | 0.18 | 0.19 | – | – | – |
| CG2852 | SID104184113 | 0.37 | 0.49 | – | – | – |
| Usp16-45 (Ubiquitin specific protease 16/45) | SID104198144 | 0.29 | 0.31 | – | – | – |
| CG5708 | SID104182673 | -0.39 | 0.14 | – | – | – |
| Pex7 (Peroxin 7) | SID104190443 | 0.27 | 0.17 | – | – | – |
| CG4036 | SID104182527 | 0 | 0.15 | – | – | – |
| Uev1A (Ubiquitin-conjugating enzyme variant 1A) | SID104189555 | 0.48 | 0.41 | – | – | – |
| CG43316 | SID104186089 | 0.28 | 0.32 | – | – | – |
| CG34376 | SID104194487 | 0 | 0.13 | – | – | – |
| CG34376 | SID104194488 | 0.01 | 0.18 | – | – | – |
| CG34376 | SID104194493 | -0.28 | 0.03 | – | – | – |
| CG14736 | SID104194748 | 0.31 | 0.9 | – | – | – |
| Torsin | SID104198362 | 0.68 | 0.59 | 0.38 | 0.46 | – |
| CG10257 | SID104185777 | 0 | 0.21 | – | – | – |
| Dfd (Deformed) | SID104192385 | 0.32 | 0.22 | – | – | – |
| simj (simjang) | SID104190734 | 0.61 | 0.44 | – | – | – |
| Osi19 (Osiris 19) | SID104192361 | 0.29 | -0.95 | – | – | – |
| Spn (Spinophilin) | SID104187778 | 0.36 | 0.42 | – | – | – |
| Spn (Spinophilin) | SID104188282 | 0.36 | 0.2 | – | – | – |
| Spn (Spinophilin) | SID104188283 | 0.23 | 0.08 | – | – | – |
| D (Dichaete) | SID104190924 | 0.23 | 0.49 | – | – | – |
| Drep3 (DNA fragmentation factor-related protein 3) | SID104186104 | 0.31 | 0.32 | 0.68 | 0.01 | – |
| Drep3 (DNA fragmentation factor-related protein 3) | SID104187321 | 0.74 | 0.58 | – | – | – |
| Drep3 (DNA fragmentation factor-related protein 3) | SID104201839 | 0.31 | -0.23 | – | – | – |
| Idgf5 (Imaginal disc growth factor 5) | SID104186711 | -0.65 | -0.34 | – | – | – |
| Socs36E (Suppressor of cytokine signaling at 36E) | SID104182247 | 0.18 | 0.41 | 0.24 | 0.35 | – |
| sesB (stress-sensitive B) | SID104200163 | 0.25 | 0.25 | – | – | – |
| Iris | SID104180455 | 0.36 | 0.55 | – | – | – |
| CG2116 | SID104197998 | 0.39 | 0.48 | – | – | – |
| Sh3beta | SID104190793 | 0.53 | 0.47 | – | – | – |
| Sh3beta | SID104201629 | -0.04 | -0.14 | – | – | – |
| CG33191 + Pif1B | SID104192498 | -0.12 | 0.43 | – | – | – |
| CG34409 | SID104194369 | 0.25 | 0.38 | – | – | – |
| CG34409 | SID104201352 | -0.31 | 0.35 | – | – | – |
| CR43087 + CR43086 + CG34002 | SID104191745 | 0.66 | 0.05 | – | – | – |
| CG30122 | SID104186568 | -0.01 | 0.23 | – | – | – |
| CG30122 | SID104186727 | 0.34 | 0.24 | – | – | – |
| Or85e (Odorant receptor 85e) | SID104196560 | 0.22 | 0.61 | – | – | – |
| fmt (fiery mountain) | SID104189509 | 0.13 | 0.19 | – | – | – |
| para (paralytic) | SID104198933 | 0.47 | -0.2 | – | – | – |
| para (paralytic) | SID104200152 | 0.4 | 0.75 | – | – | – |
| dgt3 (dim gamma-tubulin 3) | SID104184141 | 0.2 | 0.14 | – | – | – |
| Spn28F (Serpin 28F) | SID104183407 | 0.39 | 0.4 | – | – | – |
| Sulf1 (Sulfated) | SID104192942 | 0.27 | 0.28 | – | – | – |
| Sulf1 (Sulfated) | SID104196666 | 0.61 | 0.66 | – | – | – |
| CG11379 | SID104198421 | 0.53 | 0.35 | – | – | – |
| CG30395 | SID104183688 | 0.36 | 0.2 | – | – | – |
| Cyp4ac3 (Cytochrome P450 4ac3) | SID104183096 | 0.12 | 0.28 | – | – | – |
| Cyp303a1 (Cytochrome P450 303a1) | SID104183092 | 0.57 | 0.16 | – | – | – |
| SP1173 | SID104191069 | 0.35 | 0.15 | – | – | – |
| MED18 (Mediator complex subunit 18) | SID104198341 | -0.06 | 0.01 | – | – | – |
| kek3 (kekkon 3) | SID104183345 | 0.51 | -0.09 | 0.29 | 0.3 | – |
| kek3 (kekkon 3) | SID104202189 | -0.27 | 0.22 | – | – | – |
| ZAP3 | SID104197644 | 0.5 | 0.61 | – | – | – |
| ZAP3 | SID104197645 | 0.25 | 0.51 | – | – | – |
| ZAP3 | SID104198041 | 0.26 | 0.25 | – | – | – |
| CG7724 | SID104190697 | 0.43 | 0.69 | – | – | – |

A portion from the list above, for reference:
| predicted target | PubChem SID | z-score, replicate 1 | z-score, replicate 2 | z-score, replicate 3 | z-score, replicate 4 | phenotype, replicate 1 |
| --- | --- | --- | --- | --- | --- | --- |
| CG34376 | SID104194488 | 0.01 | 0.18 | – | – | – |
| CG34376 | SID104194493 | -0.28 | 0.03 | – | – | – |
| CG14736 | SID104194748 | 0.31 | 0.9 | – | – | – |
| Torsin | SID104198362 | 0.68 | 0.59 | 0.38 | 0.46 | – |
| CG10257 | SID104185777 | 0 | 0.21 | – | – | – |
| Dfd (Deformed) | SID104192385 | 0.32 | 0.22 | – | – | – |
| simj (simjang) | SID104190734 | 0.61 | 0.44 | – | – | – |
| Osi19 (Osiris 19) | SID104192361 | 0.29 | -0.95 | – | – | – |
| Spn (Spinophilin) | SID104187778 | 0.36 | 0.42 | – | – | – |

Next records follow:
| predicted target | PubChem SID | z-score, replicate 1 | z-score, replicate 2 | z-score, replicate 3 | z-score, replicate 4 | phenotype, replicate 1 |
| --- | --- | --- | --- | --- | --- | --- |
| Appl (beta amyloid protein precursor-like) | SID104197520 | 0.09 | -0.12 | – | – | – |
| CG30096 | SID104201413 | -0.63 | 0.03 | – | – | – |
| CG10063 | SID104189480 | -0.45 | -0.76 | – | – | – |
| DUBAI + Tmem18 | SID104185136 | 0.56 | 0.16 | – | – | – |
| Fs(2)Ket (Female sterile (2) Ketel) | SID104183120 | -7.69 | -7.7 | – | – | reduced secretion |
| Nsun5 (Nop2/Sun-like domain containing protein 5) | SID104195627 | 0.05 | 0.28 | – | – | – |
| sky (skywalker) | SID104182175 | 0.15 | -0.19 | – | – | – |
| sky (skywalker) | SID104183006 | 0.15 | -0.32 | – | – | – |
| sky (skywalker) | SID104183007 | 0.2 | -0.04 | – | – | – |
| CG42507 + Trl | SID104189117 | 0.47 | 0.44 | – | – | – |
| CG42507 + Trl | SID104191100 | -2.28 | -1.12 | – | – | reduced secretion |
| CG12590 | SID104192008 | 0.48 | 0.54 | – | – | – |
| Sgs5bis | SID104196055 | -0.16 | -0.13 | – | – | – |
| CG42404 | SID104195350 | 0.14 | 0.14 | – | – | – |
| CG14000 | SID104182124 | 0.06 | 0.07 | – | – | – |
| CG10337 | SID104181830 | 0.33 | 0.48 | – | – | – |
| Trm7-34 (tRNA methyltransferase 7-34) | SID104195963 | -3.93 | 0.1 | – | – | reduced secretion |
| CG1677 | SID104197908 | -0.28 | -0.43 | – | – | – |
| Cyp4c3 (Cytochrome P450 4c3) | SID104196423 | -0.12 | -0.23 | – | – | – |
| RpS7 (Ribosomal protein S7) | SID104195186 | -2.65 | -4.28 | – | – | reduced secretion |
| CG13148 | SID104186067 | -0.5 | -0.48 | – | – | – |
| CG8531 | SID104187001 | 0.32 | 0.45 | – | – | – |
| CG3581 | SID104195291 | 0.28 | 0.4 | – | – | – |
| sta (stubarista) | SID104198630 | -1.8 | -2.51 | – | – | reduced secretion |
| CG15253 | SID104181663 | 0.18 | 0.36 | – | – | – |
| Syngr (Synaptogyrin) | SID104185795 | -0.2 | -0.17 | – | – | – |
| CG15012 | SID104188257 | 0.58 | 0.55 | – | – | – |
| CG17110 | SID104194965 | 0.23 | 0.35 | – | – | – |
| CG10175 | SID104193420 | 0.6 | 0.65 | – | – | – |
| CG10175 | SID104193992 | 0.5 | 0.34 | – | – | – |
| CG10175 | SID104201586 | 0.76 | 0.38 | – | – | – |
| Exd2 (Exonuclease 3'-5' domain-containing 2) | SID104195897 | 0.11 | 0.46 | – | – | – |
| Rcd7 (Reduction in Cnn dots 7) | SID104189892 | 0.29 | 0.24 | – | – | – |
| ItgaPS4 (Integrin alphaPS4 subunit) | SID104186422 | -0.01 | 0.27 | – | – | – |
| CG10747 | SID104181896 | 0.28 | 0.28 | – | – | – |
| TRAM | SID104197970 | 0.32 | 0.43 | – | – | – |
| TRAM | SID104198443 | 0.16 | 0.23 | – | – | – |
